Laboratory results: PubChem BioAssay AID1259308 (NCATS, 2017)
Purpose: 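Candidate targets for better recombinant protein yield in mammalian cells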 (primary screen). Cells: human HEK293 embryonic kidney cells stably expressing firefly luciferase (HEK-CMV-Luc2-Hygro). Reagents: single siRNA against human genes, 0.8 pmol siRNA per well. Time to read-out: 72 h. Measurement: 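Luciferase light (ONE-Glo) measured on one replicate plate set and viability (CellTiter-Glo) on the other, scaled to a negative control siRNA, with robust z-scores and luciferase per cell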. Direction: total luciferase, z-score and total luciferase, % of control: higher = more reporter protein produced; luciferase per cell, z-score: higher = more reporter output per viable cell. Hit rule: 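An siRNA counts as active if its total luciferase robust z-score exceeds 3; genes with two or more such siRNAs out of three were retested with fresh siRNAs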. Meaning of the calls: active = raised luciferase; inactive = no rise.
In all, the deposit lists about 59,000 reagents; shown is a part drawn at random. Over the whole deposit, about 1,510 (2.6%) are marked active. 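Calls use total luciferase alone and ignore viability, so some active siRNAs may act by altering cell number.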 Reagents against one gene are numbered here. Not all columns of the deposit are shown.

no.	gene	reagent no.	total luciferase, z-score	total luciferase, % of control	luciferase per cell, z-score	outcome
1	MOSPD3	1	0.549	92.8	-0.0139	inactive
2	MOSPD3	2	0.584	93.5	-0.22	inactive
3	MOSPD3	3	-0.204	77.8	-0.638	inactive
4	LINC01561	1	-0.497	72	-0.0118	inactive
5	LINC01561	2	-1.77	46.6	-0.0568	inactive
6	LINC01561	3	0.744	96.7	0.959	inactive
7	DGKI	1	1.1	104	1.35	inactive
8	DGKI	2	1.6	114	1.97	inactive
9	DGKI	3	-0.865	64.7	-0.6	inactive
10	LINC02591	1	0.676	95.3	0.133	inactive
11	LINC02591	2	0.53	92.4	0.102	inactive
12	LINC02591	3	-0.911	63.8	-0.844	inactive
13	MUC15	1	0.672	95.2	-0.127	inactive
14	MUC15	2	0.374	89.3	0.318	inactive
15	MUC15	3	-0.368	74.6	-0.514	inactive
16	FBXO41	1	-0.0102	81.7	-0.447	inactive
17	FBXO41	2	1.97	121	2.11	inactive
18	FBXO41	3	0.0842	83.6	-0.662	inactive
19	RPP38	1	0.777	97.3	1.36	inactive
20	RPP38	2	-1.32	55.6	-1.64	inactive
21	RPP38	3	0.758	97	0.931	inactive
22	ABCA16P	1	-1.67	48.7	-1.58	inactive
23	ABCA16P	2	-0.373	74.5	-0.104	inactive
24	ABCA16P	3	0.384	89.5	0.254	inactive
25	MED10	1	-1.38	54.4	-1.11	inactive
26	MED10	2	-0.593	70.1	-0.482	inactive
27	MED10	3	-0.726	67.4	-0.367	inactive
28	OR5AP2	1	2.26	127	2.9	inactive
29	OR5AP2	2	-3.28	16.7	-3.16	inactive
30	OR5AP2	3	-0.456	72.8	-0.658	inactive
31	ZFPM2	1	0.589	93.6	0.596	inactive
32	ZFPM2	2	-2.05	41	-1.91	inactive
33	ZFPM2	3	0.516	92.1	0.388	inactive
34	SCLY	1	1.21	106	3.14	inactive
35	SCLY	2	0.0903	83.7	0.306	inactive
36	SCLY	3	0.0687	83.3	0.966	inactive
37	GSDMD	1	-0.0883	80.1	0.765	inactive
38	GSDMD	2	-0.323	75.5	-0.373	inactive
39	GSDMD	3	1.05	103	1.57	inactive

4 of these entries, set out differently.
{"gene":"MOSPD3","reagent no.":1,"total luciferase, z-score":0.549,"total luciferase, % of control":92.8,"luciferase per cell, z-score":-0.0139,"outcome":"inactive"}
{"gene":"MOSPD3","reagent no.":2,"total luciferase, z-score":0.584,"total luciferase, % of control":93.5,"luciferase per cell, z-score":-0.22,"outcome":"inactive"}
{"gene":"MOSPD3","reagent no.":3,"total luciferase, z-score":-0.204,"total luciferase, % of control":77.8,"luciferase per cell, z-score":-0.638,"outcome":"inactive"}
{"gene":"LINC01561","reagent no.":1,"total luciferase, z-score":-0.497,"total luciferase, % of control":72,"luciferase per cell, z-score":-0.0118,"outcome":"inactive"}
